This is an account of results in PubChem BioAssay AID248 (DTP/NCI, 2004).

Structures are written as SMILES. The list does not hold the whole screen: it is rich in T/C values a quarter to a half above the control, in often repeated tests (any T/C) and in doses without a T/C. Further doses and runs are listed elsewhere. T/C: endpoint of the treated group in % of that of the vehicle group. Some entries give survivors of the animals treated and no T/C: the source files T/C as zero there, which appears to mark a toxic dose or a test without result, not a measured value. Some doses without a T/C left all or most animals alive at the check, yet need not have been tolerated: the source hardly ever lists a survival T/C far under the control, and the zero likely stands for such cases as well. Survivors were counted at the toxicity check, usually on the fifth day, unless a day is given; later deaths do not show. Schedules are NCI's codes, taken here to give the interval after Q, in days (D) or hours (H), and the number of doses after X. For survival time, the PubChem record calls one and a half times the control and up active, and a quarter to a half above the control has no call in these data; cut-offs in other NCI protocols can differ.

This assay deals with L1210 leukemia ip in BDF1 mice, survival T/C. The assay is described as follows: NCI In Vivo Anticancer Drug Screen. Data for tumor model L1210 Leukemia (intraperitoneal) in B6D2F1 (BDF1) mice. As to conditions: T/C endpoint: mean survival time, higher T/C = longer survival.
Setting [1] is: dose: 400.0 mg/kg/injection, schedule: Q04DX003 (ip), vehicle: Klucel (hydroxypropylcellulose) (HPC).
The mark [2] stands for this setting: dose: 100.0 mg/kg/injection, schedule: Q01DX009 (ip), vehicle: saline.
[3] abbreviates: dose: 200.0 mg/kg/injection, schedule: Q01DX009 (ip), vehicle: saline.
Setting [4] is: dose: 400.0 mg/kg/injection, schedule: Q01DX009 (ip), vehicle: saline.

Turning to `O=C(Nc1ccc(Nc2ccccc2)cc1)Nc1ccccc1C(F)(F)F`, the survivor count (dose: 100.0 mg/kg/injection, schedule: Q01DX009 (ip), vehicle: carboxymethylcellulose (CMC)) was 3 of 3; the survivor count (dose: 200.0 mg/kg/injection, schedule: Q04DX003 (ip), vehicle: carboxymethylcellulose (CMC)) is reported as 6 of 6; the survivor count (dose: 400.0 mg/kg/injection, schedule: Q01DX009 (ip), vehicle: carboxymethylcellulose (CMC)) was 6 of 6.
As to `CCCN(CCC)CP(=S)(CN(CCC)CCC)CN(CCC)CCC`, under “dose: 400.0 mg/kg/injection, schedule: Q01DX001 (ip), vehicle: saline”, the survivor count is listed as 2 of 6.
For the compound `Cc1ccc(NC(=S)NN)cc1C`, the survivor count (dose: 200.0 mg/kg/injection, schedule: Q01DX009 (ip), vehicle: Klucel (hydroxypropylcellulose) (HPC)) is 4 of 6 and the survivor count under setting [1] was 5 of 6.
Consider `CSc1nc2nc(Cl)c(Cl)nc2[nH]1`, for which the T/C (dose: 50.0 mg/kg/injection, schedule: Q01DX009 (ip), vehicle: saline) is 126 % of control. Besides, the survivor count under setting [2] is 4 of 6, the survivor count under setting [3] is reported as 3 of 6 and the survivor count under setting [4] is on record as 0 of 6.
Take `O=c1[nH]c2c(cc1Br)C(Br)C(Br)C=C2` (configuration not stated): the survivor count (dose: 400.0 mg/kg/injection, schedule: Q01DX001 (ip), vehicle: other) is reported as 0 of 4.
In the case of `S=C=NCc1cccc2ccccc12`, the survivor count runs as follows: (dose: 40.0 mg/kg/injection, schedule: Q01DX001 (ip), vehicle: carboxymethylcellulose (CMC)) 2 of 6; (dose: 75.0 mg/kg/injection, schedule: Q01DX001 (ip), vehicle: carboxymethylcellulose (CMC)) 1 of 6; (dose: 150.0 mg/kg/injection, schedule: Q01DX001 (ip), vehicle: carboxymethylcellulose (CMC)) 0 of 6; (dose: 300.0 mg/kg/injection, schedule: Q01DX001 (ip), vehicle: carboxymethylcellulose (CMC)) 0 of 6.
Take `COc1ccc(C(C#N)N2CCOCC2)cc1` (configuration not stated): the survivor count under setting [1] was 0 of 6.
On to `O=C1CC(c2c[nH]c3nccnc23)NN1` (configuration not stated), for which the survivor count reads like this: (dose: 25.0 mg/kg/injection, schedule: Q01DX009 (ip), vehicle: water) 3 of 6; (dose: 50.0 mg/kg/injection, schedule: Q01DX009 (ip), vehicle: water) 5 of 6; (dose: 100.0 mg/kg/injection, schedule: Q01DX009 (ip), vehicle: water) 6 of 6; (dose: 200.0 mg/kg/injection, schedule: Q01DX009 (ip), vehicle: water) 5 of 6; (dose: 400.0 mg/kg/injection, schedule: Q01DX009 (ip), vehicle: water) 3 of 6.
Consider `S=C(NCc1ccccc1)[S][Sn]([S]C(=S)NCc1ccccc1)([c]1ccccc1)[c]1ccccc1`, for which the survivor count is, setting by setting: (dose: 40.0 mg/kg/injection, schedule: Q01DX001 (ip), vehicle: steroid suspending solution) 2 of 6; (dose: 80.0 mg/kg/injection, schedule: Q01DX001 (ip), vehicle: steroid suspending solution) 0 of 6; (dose: 100.0 mg/kg/injection, schedule: Q01DX001 (ip), vehicle: steroid suspending solution) 2 of 6; (dose: 200.0 mg/kg/injection, schedule: Q01DX001 (ip), vehicle: steroid suspending solution) 0 of 6; (dose: 400.0 mg/kg/injection, schedule: Q01DX001 (ip), vehicle: steroid suspending solution) 0 of 6.
Turning to `Cc1cc(C)c2c(c1)CC2N` (configuration not stated), the survivor count is 0 of 3 (dose: 200.0 mg/kg/injection, schedule: Q04DX002 (ip), vehicle: Klucel (hydroxypropylcellulose) (HPC)) and 0 of 3 (dose: 400.0 mg/kg/injection, schedule: Q04DX002 (ip), vehicle: Klucel (hydroxypropylcellulose) (HPC)).
On to `O=C1CCC2(CCCCC2)N1`, for which the survivor count was 0 of 6 (dose: 100.0 mg/kg/injection, schedule: Q01DX009 (ip), vehicle: saline with Tween-80); 0 of 6 (dose: 200.0 mg/kg/injection, schedule: Q01DX009 (ip), vehicle: saline with Tween-80); 0 of 6 (dose: 400.0 mg/kg/injection, schedule: Q01DX009 (ip), vehicle: saline with Tween-80).
`C1CC[N+]2=C(C1)OCCC2`: the T/C under setting [2] was 133 % of control and the T/C under setting [3] was 128 % of control. In addition, the survivor count under setting [4] is 0 of 6.
As to `CC(=O)OCC(=O)[C@@]1(O)CC[C@H]2[C@@H]3CCC4=CC(=O)C=C[C@]4(C)[C@H]3C(=O)C[C@@]21C`, for the setting “dose: 385.0 mg/kg/injection, schedule: Q01DX009 (ip), vehicle: Klucel (hydroxypropylcellulose) (HPC)”, the survivor count is given as 3 of 6.
Consider `OCCN(CCO)Cc1cc(Cl)c2cccnc2c1O`, for which the survivor count (dose: 300.0 mg/kg/injection, schedule: Q01DX001 (ip), vehicle: saline) is recorded as 2 of 6.
`COC(=O)C(=C(c1ccccc1)c1ccccc1)c1ccccc1`: the survivor count (dose: 400.0 mg/kg/injection, schedule: Q04DX003 (ip), vehicle: saline with Tween-80) is 2 of 3.
For `C=CCN(CC=C)P(=O)(OCC)OCC`, the survivor count (dose: 400.0 mg/kg/injection, schedule: Q04DX003 (ip), vehicle: saline) is given as 0 of 6.
As to `c1ccc(CCN2CCCC2)nc1`, the survivor count by setting is: (dose: 50.0 mg/kg/injection, schedule: Q04DX002 (ip), vehicle: saline with Tween-80) 1 of 3; (dose: 100.0 mg/kg/injection, schedule: Q04DX002 (ip), vehicle: saline with Tween-80) 0 of 3; (dose: 200.0 mg/kg/injection, schedule: Q04DX002 (ip), vehicle: saline with Tween-80) 0 of 3; (dose: 400.0 mg/kg/injection, schedule: Q04DX002 (ip), vehicle: saline with Tween-80) 0 of 3.
